# Measurements: PubChem BioAssay AID1671190 (National Center for Advancing Translational Sciences (NCATS), 2021)
# By UniProt entry, the sequences of proteins in these tests, tags left out. Where a name states a change or a piece, a line headed by the entry shows the natural chain unless it says otherwise.
# UniProt P18054: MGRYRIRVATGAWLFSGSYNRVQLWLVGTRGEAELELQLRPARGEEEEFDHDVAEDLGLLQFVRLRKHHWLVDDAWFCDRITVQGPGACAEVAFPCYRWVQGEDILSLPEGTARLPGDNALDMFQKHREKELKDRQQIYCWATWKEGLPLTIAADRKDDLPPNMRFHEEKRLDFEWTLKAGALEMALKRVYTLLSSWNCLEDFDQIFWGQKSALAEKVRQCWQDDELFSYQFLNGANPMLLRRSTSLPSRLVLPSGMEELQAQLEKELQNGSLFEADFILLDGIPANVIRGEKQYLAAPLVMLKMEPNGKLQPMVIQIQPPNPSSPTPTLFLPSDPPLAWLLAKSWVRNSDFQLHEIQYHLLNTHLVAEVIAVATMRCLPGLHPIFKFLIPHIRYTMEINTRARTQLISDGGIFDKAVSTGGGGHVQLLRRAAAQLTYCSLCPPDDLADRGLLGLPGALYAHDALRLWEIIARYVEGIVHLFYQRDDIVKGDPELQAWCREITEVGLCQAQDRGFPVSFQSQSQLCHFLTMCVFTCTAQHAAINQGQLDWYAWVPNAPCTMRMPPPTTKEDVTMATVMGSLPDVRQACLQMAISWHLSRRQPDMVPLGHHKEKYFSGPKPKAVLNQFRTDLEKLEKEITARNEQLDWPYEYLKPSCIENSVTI
# Screen size: about 580,000 compounds; about 6,100 (1.1%) were called active. The inconclusive results got no clear call from the source; some entries with a clear call stand among them for comparison. Calls follow the shape of the dose curve; as a rule, active = well fitted inhibition curve with a large enough effect; inconclusive = small, poorly fitted or top-dose-only effect, or another doubt; inactive = no such curve, though single readings can be large or run the other way. Potencies of inconclusive entries are doubtful fits and often do not repeat.
# Target: Polyunsaturated fatty acid lipoxygenase ALOX12 (Homo sapiens) (UniProt P18054)
# Test: Primary qHTS assay for inhibitors of human arachidonate 12S-lipoxygenase (ALOX12): Round 2
# Conditions: purified 12hLO, xylenol orange hydroperoxide absorbance; activity change, negative = inhibition: at 108 µM (top of the series) unless noted
# In short: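 Hydroperoxide product was detected by ferrous iron/xylenol orange as the 573 to 405 nm absorbance ratio. Arachidonic acid at 40 uM (final) was turned over for 30 min at room temperature by 150 nM human 12hLO, pH 7.0 Hepes buffer, after 15 min compound preincubation.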
# % is scaled to controls: 0 for no effect and ±100 for the full control effect; potency is read from the fitted curve at half-maximal effect.
Structure (SMILES),Potency,"activity change, negative = inhibition"
Cc1nnc(N2C(=O)C(=O)/C(=C(/O)c3ccc4c(c3)OCCO4)C2c2ccc(F)cc2)s1 (configuration not stated),"inconclusive: 3.98 µM [inhibitor, full curve, poor fit]",–
O=C(NC(=S)NC1CCS(=O)(=O)C1)c1cccc([N+](=O)[O-])c1 (configuration not stated),"inconclusive: 35.5 µM [inhibitor, partial curve, poor fit]",–
COc1ccc(N(C(=O)c2ccco2)C(C(=O)NC2CCCC2)c2cccs2)cc1OC (configuration not stated),inactive,–
CCc1cccc(NC(=O)CCS(=O)(=O)c2ccc3nc(C)sc3c2)c1,"inconclusive: 50.1 µM [inhibitor, partial curve, poor fit]",–
COc1ccc(Cc2nc(=S)[nH][nH]2)cc1Br,"inconclusive: 44.7 µM [inhibitor, partial curve, poor fit]",–
COc1ccc(CNc2ccnc(-c3cccnc3)n2)c(OC)c1,active: 44.7 µM,–
Cc1oc2cc([N+](=O)[O-])c(O)c([N+](=O)[O-])c2c1C(=O)c1ccc(Br)cc1,active: 28.2 µM,–
Nc1ccc2nc3c(=O)[nH]c(=S)[nH]c3nc2c1,"inconclusive: 28.2 µM [inhibitor, partial curve, poor fit]",–
Cc1ncncc1C(=O)O,"inconclusive: 44.7 µM [inhibitor, partial curve, poor fit]",–
Cc1c(Cl)cccc1S(=O)(=O)Nc1ccc2sc(NC(=O)c3ccccc3)nc2c1,"inconclusive: 39.8 µM [inhibitor, partial curve, poor fit]",–
CCOc1ccc(NC(=S)N2CCCCCC2)cc1,"inconclusive: 100 µM [inhibitor, single point]",–
C[S+](=O)([O-])N1CCn2c(nnc2-c2ccccc2)C1,"inconclusive: 79.4 µM [inhibitor, partial curve]",–
O=C(COC(=O)Cc1ccc(S(=O)(=O)N2CCOCC2)s1)Nc1ccc(OC(F)F)cc1,"inconclusive: 25.1 µM [inhibitor, single point]",–
O=C(NC(=S)Nc1ncc(Br)cc1Br)c1cncc(Br)c1,"inconclusive: 3.98 µM [inhibitor, full curve, poor fit]",–
CCC(c1nnnn1C1CCCC1)N1CCN(C(=O)c2ccco2)CC1 (configuration not stated),"inconclusive: 35.5 µM [inhibitor, partial curve, poor fit]",–
NC(=O)c1nn(CC(=O)Nc2cccc(S(=O)(=O)N3CCCCCC3)c2)c(=O)c2ccccc12,"inconclusive: 100 µM [inhibitor, partial curve, poor fit]",–
COc1cc(OC)cc(C(=O)N2CCC(N3CCN(c4ccccc4OC)CC3)CC2)c1,"inconclusive: 0.794 µM [inhibitor, full curve]",–
CC(=O)Nc1cc(-c2ccc(C(=O)N3CCOCC3)cc2)cn2c(-c3ccccc3)cnc12,"inconclusive: 63.1 µM [inhibitor, partial curve, poor fit]",–
Cc1cccc(C)c1NC(=O)NC(=O)c1ccc(Cl)cc1,"inconclusive: 126 µM [inhibitor, single point]",–
CSc1ccc(NC(C)=O)cc1,inactive,–
Cc1ccc(-c2ccc(/C=C/C(=O)c3ccccc3)o2)cc1,active: 3.55 µM,–
CCCc1nc2c(C)cc(Br)cn2c1Cc1ccccc1OC,"inconclusive: 126 µM [inhibitor, single point]",–
CCc1ccc(C(C)NC(=O)C2CCCC2)cc1 (configuration not stated),"inconclusive: 5.62 µM [inhibitor, full curve, poor fit]",–

Structure (SMILES),Potency,"activity change, negative = inhibition"
CCC(NS(=O)(=O)c1ccc2c(c1)Cc1cc(S(=O)(=O)NC(CC)C(=O)O)ccc1-2)C(=O)O (configuration not stated),"inconclusive: 44.7 µM [inhibitor, partial curve, poor fit]",–
O=C(CCl)Nc1ccc2c(c1)OCO2,inactive,–
O=C(O)c1cccc(CSc2ccc(Cl)cc2Cl)c1,"inconclusive: 100 µM [inhibitor, single point]",–
CCC(=O)N(Cc1cc(=O)[nH]c2ccccc12)c1ccc(C)cc1C,"inconclusive: 31.6 µM [inhibitor, single point]",–
Fc1ccc(OCc2coc(-c3ccccc3)n2)c(Br)c1,"inconclusive: 56.2 µM [inhibitor, partial curve, poor fit]",–
COc1cccc(C(O)c2nc(-c3cccc(C(F)(F)F)c3)cs2)c1 (configuration not stated),"inconclusive: 89.1 µM [inhibitor, partial curve, poor fit]",–
O=C1NC(=Nc2ccccc2)S/C1=C/c1cccs1,inactive,–
CC(C)(C)c1ccc(OCC(=O)NNC(=O)CCc2ccccc2)cc1,inactive,–
Cn1c(N)c(N=Nc2ccc(S(N)(=O)=O)cc2)c(=O)n(C)c1=O,"inconclusive: 100 µM [inhibitor, partial curve, poor fit]",–
O=C(COC(=O)c1ccccc1-n1cnnn1)c1ccc(Br)cc1,inactive,–
Cn1nnc2c(N3CCCCC3)nccc21,"inconclusive: 56.2 µM [inhibitor, partial curve, poor fit]",–
Cc1cc(C)c(C(=O)COC(=O)c2cccc(S(=O)(=O)NCc3ccccc3)c2)cc1C,inactive,–
CC1CCCCN1CCCNC(=O)c1cc(Sc2ccc(Cl)cc2)nc2ccccc12 (configuration not stated),–,inconclusive: -32.7% [inhibitor]
CCOC(=O)C1(Cc2ccc(Cl)cc2)CCN(Cc2cn(CC)nc2C)CC1,inactive,–
C=CCNC(=O)C1CCN(c2nc(C)cc(-c3ccccc3)n2)CC1,inactive,–
Cc1ccsc1/C=N/Nc1ncc(Cl)cc1Cl,inactive,–
CCOc1c2ccc(C(=O)N[C@H](C)C3CCCCC3)cc2nn1CC,inactive,–
Cc1oc2c(C)c3oc(=O)c(CCC(=O)O)c(C)c3cc2c1-c1ccccc1,inactive,–
CCN(CC)S(=O)(=O)c1cccc(-c2csc(C)n2)c1,inactive,–
Cc1nonc1OC(C)CNc1ccc([N+](=O)[O-])cc1 (configuration not stated),inactive,–
CCOc1ccc(-n2nc3ccc(NC(=O)c4ccc(-c5cccc(Cl)c5)o4)cc3n2)cc1,"inconclusive: 44.7 µM [inhibitor, partial curve, poor fit]",–
CN(Cc1ccccc1)C(=O)c1[nH]cnc1C(=O)NC1CCN(C(=O)OC(C)(C)C)CC1,inactive,–
O=[N+]([O-])c1ccc(Cl)c(/C=N/n2c(-c3ccncc3)n[nH]c2=S)c1,"inconclusive: 35.5 µM [inhibitor, partial curve, poor fit]",–

Structure (SMILES),Potency,"activity change, negative = inhibition"
COc1cc(C2C(C(=O)c3ccc(C)o3)=C(O)C(=O)N2c2cc(C)on2)cc(Br)c1O (configuration not stated),"inconclusive: 31.6 µM [inhibitor, partial curve, poor fit]",–
O=C1C(F)=CC(COC(c2ccccc2)(c2ccccc2)c2ccccc2)OC1n1cc(F)c(=O)[nH]c1=O (configuration not stated),active: 8.91 µM,–
CCCCN1C(=O)C(C)=C(C)C1c1cn(C)c2ccccc12 (configuration not stated),"inconclusive: 20 µM [inhibitor, partial curve, poor fit]",–
COc1cc(C2C3CCCCC3(O)CCN2Cc2ccc(Cl)cc2)ccc1O (configuration not stated),"inconclusive: 100 µM [inhibitor, single point]",–
CCN(CC)C(=O)[C@@H]1C[C@H](NC(=O)c2ccc[nH]2)CN1Cc1ccncc1,inactive,–
O=c1cc(O)c2sc(Nc3ccc(F)c(Cl)c3)nc2[nH]1,"inconclusive: 50.1 µM [inhibitor, partial curve, poor fit]",–
COc1cc(S(=O)(=O)NCCN2CCOCC2)ccc1-n1cnnn1,"inconclusive: 28.2 µM [inhibitor, partial curve, poor fit]",–
CC(=O)Nc1ccc(-n2c(C)ccc2-c2ccccc2)cc1,"inconclusive: 112 µM [inhibitor, single point]",–
COC(=O)C1=C(C)N(Cc2cccc(C(F)(F)F)c2)C(=NCc2ccc(C(F)(F)F)cc2)NC1c1ccc(F)cc1 (configuration not stated),"inconclusive: 89.1 µM [inhibitor, single point]",–
Cc1cc(C)cc(OCCN(C)C(=O)c2cc(=O)[nH]c3ccccc23)c1,inactive,–
COc1cccc(N2CCN(CCS(=O)(=O)c3ccc(Br)cc3)CC2)c1,"inconclusive: 50.1 µM [inhibitor, partial curve, poor fit]",–
O=c1c2ccccc2nc(-c2ccco2)n1Cc1ccccc1,"inconclusive: 0.112 µM [inhibitor, full curve, poor fit]",–
Cc1ccc(-n2ncc3c(NC4CCCCCC4)ncnc32)cc1C,inactive,–
CCn1c(C)cc(/C=C2/NC(=O)N(Cc3ccccc3F)C2=O)c1C,"inconclusive: 44.7 µM [inhibitor, partial curve]",–
O=C(Nc1cccc(Cl)c1)c1ccc(F)c(S(=O)(=O)N2CCN(c3ccccn3)CC2)c1,–,inconclusive: -30.1% [inhibitor]
C[C@H]1[C@@H]2[C@@H](O)C([C@H](C)C(=O)NCc3ccccn3)CC[C@@]2(C)CC[C@@H]1NC(=O)c1ccc(C#N)cc1 (some centres not stated),inactive,–
Cc1cn([C@H]2C[C@H](O)[C@@H](/C=C/C(=O)NCc3cccc4ccccc34)O2)c(=O)[nH]c1=O,"inconclusive: 126 µM [inhibitor, single point]",–
FC(F)(F)c1cc(Cl)c2nc(C34CC5CC(CC(C5)C3)C4)cn2c1,"inconclusive: 126 µM [inhibitor, partial curve, poor fit]",–
Cc1ccc(OCCC(=O)O)cc1,"inconclusive: 126 µM [inhibitor, single point]",–
CSc1nc(-c2ccc(Cl)cc2Cl)[nH]c(=O)c1C#N,"inconclusive: 56.2 µM [inhibitor, partial curve, poor fit]",–
CCN1CCCC1CNC(=O)c1c(C)nn(-c2ccc(F)cc2)c1-n1cccc1 (configuration not stated),inactive,–

# Quoted at random: 4 records from the list, in no set order.
Structure (SMILES),Potency,"activity change, negative = inhibition"
CCc1ccc(C(C)NC(=O)C2CCCC2)cc1 (configuration not stated),"inconclusive: 5.62 µM [inhibitor, full curve, poor fit]",–
CCc1cccc(NC(=O)CCS(=O)(=O)c2ccc3nc(C)sc3c2)c1,"inconclusive: 50.1 µM [inhibitor, partial curve, poor fit]",–
Cc1nonc1OC(C)CNc1ccc([N+](=O)[O-])cc1 (configuration not stated),inactive,–
CCOc1ccc(-n2nc3ccc(NC(=O)c4ccc(-c5cccc(Cl)c5)o4)cc3n2)cc1,"inconclusive: 44.7 µM [inhibitor, partial curve, poor fit]",–
